# Primary screen of a compound library

Source: ChEMBL document CHEMBL3988442, “University of Dundee, Small-Polar-MMV Screening Library” (2021).

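Viability assay of Plasmodium falciparum sporozoites; the read-out is not stated. The concentration is filed as 10 mM, unlikely as a test dose, so the dose is not known. Direction is inferred from retests: higher values go with lower viability. Strong results were mostly tested again. Of about 34,000 compounds tested this way, about 280 (0.84%) reached 50% or more in at least one test.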

The filed quantity is “Percent Effect” (%). The record does not define 0% and 100%; most values in the screen are far below 50% and negative numbers occur (in some assays of this library far below -100). This is an unselected part of the compounds tested. Two or more numbers in one place are separate tests of the same structure; such repeats can differ widely.

SMILES	Percent Effect
Cc1nc2ccccn2c1CC(=O)N[C@@H]1CC[C@@H](N2CCOCC2)[C@@H]1O	5.774
Cc1nc(C)n(C2CCCN(C(=O)c3ccc(OC(C)C)nc3)C2)n1 (centres undefined)	-19.03
Cl.O=C(c1ccccc1F)N1CC2(CCNCC2)c2cc(Cl)ccc21	-2.347
Cc1ncccc1Oc1nccnc1C1CCN(S(C)(=O)=O)CC1	7.866
OC[C@H]1CCCN1c1nccc(-c2cncnc2C2CCCCC2)n1	10.58
COCCN(CCOC)C(=O)c1cn(C(C)(C)C)c2ncccc12	0.3012
O=C1CC2(CCCC2)CC(=O)N1Cc1ncccn1	0.1238
O[C@H]1CN(Cc2cc3ccccc3o2)CC[C@@]12CCCO2	11.37
Cc1cc(C)n(CC2CCCN2C(=O)c2cncnc2C)n1 (centres undefined)	0.2681
CNC(=O)NC(=O)C(C)N(C)CCCc1cc(-c2ccccc2)no1 (centres undefined)	-7.596
O=C1N(c2ccc(F)cc2)Cc2nc(=O)n(Cc3cccc(Cl)c3)n21	-7.895
O=C(O)C(F)(F)F.O=S(=O)(c1cccs1)N1CC[C@@H](O)[C@@H]1Cc1ccncc1	6.902
CN(Cc1cscn1)C1CCCN(Cc2noc(C3CC3)n2)C1 (centres undefined)	0.4075
Cc1nc(CCNC(=O)NC2CCN(c3ncccn3)CC2)cs1	-71
CC1CCCN(Cc2c(C3CC3)[nH]c3ncccc23)C1 (centres undefined)	8.57
CCS(=O)(=O)N1CCCC(Cc2cnccn2)C1 (centres undefined)	-3.682
Cc1ccc(C(=O)NCCCN(C)S(C)(=O)=O)c(=O)[nH]1	-8.639
Cc1ccc(OC2(C(=O)O)CCN(C(=O)c3cccs3)CC2)cn1	15.1
CC(C)C(CNC(=O)NCc1cc[nH]n1)N1CCOCC1 (centres undefined)	8.358
CN(Cc1nnc(C2CC2)n1C)S(=O)(=O)Cc1ccccc1F	2.452
CO[C@H]1CN(C(=O)c2ccc3oc(C)cc3c2)CC[C@@]12CCCO2	-24.76
CCNC(=O)N(C)Cc1ccc(SC)c(OC)c1	-6.539
CC(=O)N1CCCC(Cc2nccn2C)C1 (centres undefined)	-0.5021
Cc1cccc(C)c1OCCNC(=O)NC(C)c1nncn1C (centres undefined)	0.2312
CC(O)CN1CCC(CNCc2cccc(C(N)=O)c2)CC1 (centres undefined)	9.28
Cc1c(C(=O)NCC(C)C)nnn1-c1cccc2c1CCN(CCO)C2	-4.902
CC(=O)N1CCCC1C(=O)NCCOc1cccc(F)c1 (centres undefined)	-6.239
CCCNC(=O)CN1CCC(NCc2c(C)nn(C)c2OC)CC1	-8.049
O=c1oc(-c2ccc(F)cc2)nn1CCS(=O)(=O)c1ccccc1	-26.8 and -20.61
O=C(NCCNC(=O)c1scnc1Cl)c1ccccc1	-12.25
[H][C@]12CC(COCC(=O)N(C)C)C[C@]1([H])N(Cc1ccco1)CCO2 (some centres undefined)	2.97 and 7.317
O=C(CCN1CCc2c(ncn2C2CC2)C1)NC1CCCC1	6.685
COCCn1c(-c2cccc(OC)c2)cnc1NC(=O)NCCC(C)C	-23.34
CC(=O)c1c(N(C)C)ccnc1C(F)(F)F	-3.264
O=C(O)C1(Oc2ccc3ccccc3c2)CCN(c2ncccn2)CC1	-19.21
Cc1noc(C2CCC3(CCN(C(=O)c4ccncn4)CC3)O2)n1 (centres undefined)	3.421
Cl.[H][C@@]12CNC[C@]1([H])CN(C(=O)C1CCCCC1)C2	-33.71
CN1CCc2cc(C(CNS(=O)(=O)c3cccs3)N3CCCC3)ccc21 (centres undefined)	-3.464
CN(C)c1ncccc1C(=O)N1CCCN(c2cccnn2)CC1	-0.223
CC(O)CN1CCC(CNCc2ccccc2OC(F)(F)F)CC1 (centres undefined)	11.27
COc1ccc(COCC(O)CNC(=O)c2ccc(C)c(F)c2)cc1 (centres undefined)	0.5384
CN1CCC(c2cncc(Cl)n2)CC1	3.487
CN1CC(=O)N(c2ccccc2)CC12CCN(C(=O)c1cnccn1)C2.O=C(O)C(F)(F)F (centres undefined)	16.86
CC1CN(C)CCN1C(=O)c1ccn(-c2cccc(Cl)c2)n1 (centres undefined)	0.3271
CS(=O)(=O)c1cccc(C(N)c2ccccc2)c1 (centres undefined)	-3.051
CCCN1CC(NC(=O)Nc2nc(C)n(C(C)C)n2)CC1=O (centres undefined)	-0.3286
CN(C)c1ncc(I)c(C2CCCN2S(C)(=O)=O)n1 (centres undefined)	7.625
Cc1nc(N)sc1C(=O)N1CCCC(c2nccn2CCCN(C)C)C1 (centres undefined)	5.094
O=C(c1cc(C2CC2)[nH]n1)N1CCN(Cc2ccc(Cl)cc2)CC1	25.39

Once more, the final 3:

{"smiles": "CN(C)c1ncc(I)c(C2CCCN2S(C)(=O)=O)n1", "stereo": "centres undefined", "Percent Effect": 7.625}
{"smiles": "Cc1nc(N)sc1C(=O)N1CCCC(c2nccn2CCCN(C)C)C1", "stereo": "centres undefined", "Percent Effect": 5.094}
{"smiles": "O=C(c1cc(C2CC2)[nH]n1)N1CCN(Cc2ccc(Cl)cc2)CC1", "Percent Effect": 25.39}